Reference: patent US20250042956A1
No constants are given. Whether binding was seen depends on the method and setting. For some assays here: In cells and extracts the contact can be indirect. Some entries that bind do so weakly or less than the wild type. Where a sequence is shown, tags or fusion partners need not be part of it.

Protein sequences, listed by entry. Tags and fused reporters are not part of them.
UniProt Q8GUI6: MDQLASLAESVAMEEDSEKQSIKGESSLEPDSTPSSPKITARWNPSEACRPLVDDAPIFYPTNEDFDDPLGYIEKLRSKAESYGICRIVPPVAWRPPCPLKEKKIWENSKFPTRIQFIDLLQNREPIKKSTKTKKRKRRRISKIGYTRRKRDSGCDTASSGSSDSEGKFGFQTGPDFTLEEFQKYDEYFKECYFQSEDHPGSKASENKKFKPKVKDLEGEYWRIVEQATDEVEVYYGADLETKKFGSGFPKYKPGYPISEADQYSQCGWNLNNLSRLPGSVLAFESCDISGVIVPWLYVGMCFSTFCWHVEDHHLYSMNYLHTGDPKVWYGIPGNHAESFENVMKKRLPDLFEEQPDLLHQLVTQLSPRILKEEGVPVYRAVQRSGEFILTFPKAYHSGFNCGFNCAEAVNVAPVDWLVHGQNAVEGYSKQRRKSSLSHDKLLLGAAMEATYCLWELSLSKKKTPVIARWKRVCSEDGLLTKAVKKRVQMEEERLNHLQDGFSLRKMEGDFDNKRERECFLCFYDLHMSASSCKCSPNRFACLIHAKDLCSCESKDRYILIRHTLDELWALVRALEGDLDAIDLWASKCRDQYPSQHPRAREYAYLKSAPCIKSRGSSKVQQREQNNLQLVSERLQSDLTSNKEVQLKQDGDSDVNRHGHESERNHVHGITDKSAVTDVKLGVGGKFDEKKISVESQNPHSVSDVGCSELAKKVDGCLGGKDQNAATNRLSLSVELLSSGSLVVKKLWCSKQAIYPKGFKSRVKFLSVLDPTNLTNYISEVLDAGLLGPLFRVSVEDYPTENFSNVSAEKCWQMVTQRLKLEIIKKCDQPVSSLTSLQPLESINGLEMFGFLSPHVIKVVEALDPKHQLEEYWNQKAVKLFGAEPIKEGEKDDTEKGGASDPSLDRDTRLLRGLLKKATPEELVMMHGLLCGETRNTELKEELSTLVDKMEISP

Experiments:
[1] = target: T1, AT2G17540.2 TRBIP2 (Arabidopsis thaliana); test: IP-MS
T1 sequence: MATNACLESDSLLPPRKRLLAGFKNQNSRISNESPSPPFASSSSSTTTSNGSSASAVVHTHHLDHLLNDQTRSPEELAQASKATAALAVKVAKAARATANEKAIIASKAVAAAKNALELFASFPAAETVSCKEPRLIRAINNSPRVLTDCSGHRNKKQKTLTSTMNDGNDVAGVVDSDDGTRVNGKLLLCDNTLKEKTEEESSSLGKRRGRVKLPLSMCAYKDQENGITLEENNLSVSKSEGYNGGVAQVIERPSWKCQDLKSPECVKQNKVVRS

[2] = target: T2, AT4G35510.1 TRBIP1 (Arabidopsis thaliana); test: IP-MS
T2 sequence: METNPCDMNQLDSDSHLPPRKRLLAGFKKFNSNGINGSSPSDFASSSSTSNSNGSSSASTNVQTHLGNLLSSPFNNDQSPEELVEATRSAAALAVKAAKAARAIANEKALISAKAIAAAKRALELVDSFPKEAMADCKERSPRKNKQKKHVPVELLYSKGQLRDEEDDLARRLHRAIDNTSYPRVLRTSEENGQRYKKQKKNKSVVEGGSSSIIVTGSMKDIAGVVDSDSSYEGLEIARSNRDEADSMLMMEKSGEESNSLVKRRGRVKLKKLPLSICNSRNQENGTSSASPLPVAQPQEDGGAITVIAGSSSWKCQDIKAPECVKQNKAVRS

[3] = target: Myc-JMJ14 (Arabidopsis thaliana) (UniProt Q8GUI6); test: co-IP of FIG. 22A
[4] = target: AT4G20400.1 JMJ14 (Arabidopsis thaliana) (UniProt Q8GUI6); test: IP-MS, pTRB:TRB-FLAG lines
[5] = target: Myc-JMJ14 (Arabidopsis thaliana) (UniProt Q8GUI6); test: co-IP (FLAG-IP, anti-Myc Western), F2 crossed lines
[6] = target: T3, HD2A (Arabidopsis thaliana) (UniProt Q9FVE6); test: IP-MS, pHD2B:HD2B-FLAG line
T3 sequence: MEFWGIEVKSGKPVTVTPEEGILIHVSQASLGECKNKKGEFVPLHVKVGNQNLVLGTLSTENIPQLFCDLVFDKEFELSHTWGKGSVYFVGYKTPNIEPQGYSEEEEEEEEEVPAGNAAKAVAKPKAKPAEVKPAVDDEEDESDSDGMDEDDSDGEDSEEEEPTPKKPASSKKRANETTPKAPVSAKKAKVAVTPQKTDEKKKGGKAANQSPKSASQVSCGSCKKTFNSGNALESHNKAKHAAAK

[7] = target: T4, HD2C (Arabidopsis thaliana) (UniProt Q9LZR5); test: IP-MS, pHD2B:HD2B-FLAG line
T4 sequence: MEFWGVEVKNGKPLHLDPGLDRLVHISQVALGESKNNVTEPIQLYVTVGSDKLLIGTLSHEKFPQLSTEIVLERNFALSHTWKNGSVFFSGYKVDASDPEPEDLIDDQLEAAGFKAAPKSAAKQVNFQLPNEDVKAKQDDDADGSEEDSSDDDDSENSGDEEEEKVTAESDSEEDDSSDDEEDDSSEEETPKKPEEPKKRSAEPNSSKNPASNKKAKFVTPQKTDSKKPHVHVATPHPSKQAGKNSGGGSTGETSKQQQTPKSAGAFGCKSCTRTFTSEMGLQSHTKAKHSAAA

[8] = target: T5, HD2D (Arabidopsis thaliana) (UniProt Q9M4T3); test: IP-MS, pHD2B:HD2B-FLAG line
T5 sequence (looked up): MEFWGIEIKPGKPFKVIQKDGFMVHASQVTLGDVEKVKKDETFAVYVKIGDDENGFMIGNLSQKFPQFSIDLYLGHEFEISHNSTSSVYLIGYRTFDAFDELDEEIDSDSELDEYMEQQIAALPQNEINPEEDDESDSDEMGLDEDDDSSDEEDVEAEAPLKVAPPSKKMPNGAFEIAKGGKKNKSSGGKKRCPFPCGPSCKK

[9] = target: T6, HD2B (Arabidopsis thaliana) (UniProt Q56WH4); test: IP-MS, pHD2A:HD2A-FLAG line
T6 sequence: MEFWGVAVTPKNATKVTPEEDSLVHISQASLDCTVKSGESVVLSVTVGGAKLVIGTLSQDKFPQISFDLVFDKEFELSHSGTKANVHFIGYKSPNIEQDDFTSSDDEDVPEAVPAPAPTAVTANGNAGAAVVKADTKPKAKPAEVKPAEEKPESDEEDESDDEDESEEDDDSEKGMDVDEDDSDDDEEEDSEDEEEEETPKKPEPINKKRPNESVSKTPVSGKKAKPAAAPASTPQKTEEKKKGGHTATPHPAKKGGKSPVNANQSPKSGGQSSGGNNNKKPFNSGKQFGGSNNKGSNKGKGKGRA

[10] = target: T4, HD2C (Arabidopsis thaliana); test: IP-MS, pHD2A:HD2A-FLAG line
[11] = target: T5, HD2D (Arabidopsis thaliana); test: IP-MS, pHD2A:HD2A-FLAG line

Measured: binding

B1: FLAG-TRB2 (protein, not shown: small tags and cut ends)
chain: MGAPKQKWTPEEEAALKAGVLKHGTGKWRTILSDSEFSLILKSRSNVDLKDKWRNISVTALWGSRKKAKLALKRTPPGTKQDDNNTALTIVALTNDDERAKPTSPGGSGGGSPRTCASKRSITSLDKIIFEAITNLRELRGSDRTSIFLYIEENFKTPPNMKRHVAVRLKHLSSNGTLVKIKHKYRFSSNFIPAGARQKAPQLFLEGNNKKDPTKPEENGANSLTKFRVDGELYMIKGMTAQEAAEAAARAVAEAEFAITEAEQAAKEAERAEAEAEAAQIFAKAAMKALKFRIRNHPW
binds: [1] | [2] | [3] | [4] | [5]

B2: HD2B-FLAG (enzyme, not shown: small tags and cut ends)
chain: MEFWGVAVTPKNATKVTPEEDSLVHISQASLDCTVKSGESVVLSVTVGGAKLVIGTLSQDKFPQISFDLVFDKEFELSHSGTKANVHFIGYKSPNIEQDDFTSSDDEDVPEAVPAPAPTAVTANGNAGAAVVKADTKPKAKPAEVKPAEEKPESDEEDESDDEDESEEDDDSEKGMDVDEDDSDDDEEEDSEDEEEEETPKKPEPINKKRPNESVSKTPVSGKKAKPAAAPASTPQKTEEKKKGGHTATPHPAKKGGKSPVNANQSPKSGGQSSGGNNNKKPFNSGKQFGGSNNKGSNKGKGKGRA
binds: [6] | [7] | [8]

B3: HD2A-FLAG (enzyme, not shown: small tags and cut ends)
chain: MEFWGIEVKSGKPVTVTPEEGILIHVSQASLGECKNKKGEFVPLHVKVGNQNLVLGTLSTENIPQLFCDLVFDKEFELSHTWGKGSVYFVGYKTPNIEPQGYSEEEEEEEEEVPAGNAAKAVAKPKAKPAEVKPAVDDEEDESDSDGMDEDDSDGEDSEEEEPTPKKPASSKKRANETTPKAPVSAKKAKVAVTPQKTDEKKKGGKAANQSPKSASQVSCGSCKKTFNSGNALESHNKAKHAAAK
binds: [9] | [10] | [11]
